The target of test [1] is atToc132 A- plus G-domains bait (Arabidopsis thaliana) (UniProt Q9SLF3). Put plainly: two-hybrid; split-ubiquitin membrane-based yeast two-hybrid library screen in S. cerevisiae NMY51; bait fused to Cub-LexA-VP16 (pBT3-STE), Arabidopsis seedling cDNA library preys fused to NubG; selection on SD-LWHA with 3-AT; hits re-streaked, retransformed with the same bait, X-Gal filter assay.

By UniProt entry, the sequences of proteins in these tests, tags left out. Residues count along the entry.
UniProt P00375: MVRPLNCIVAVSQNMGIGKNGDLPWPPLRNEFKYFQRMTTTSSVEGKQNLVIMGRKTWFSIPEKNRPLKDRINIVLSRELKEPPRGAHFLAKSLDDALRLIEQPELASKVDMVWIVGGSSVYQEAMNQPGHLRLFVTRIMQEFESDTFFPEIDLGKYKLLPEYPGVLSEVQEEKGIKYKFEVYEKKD
UniProt Q8H0W0: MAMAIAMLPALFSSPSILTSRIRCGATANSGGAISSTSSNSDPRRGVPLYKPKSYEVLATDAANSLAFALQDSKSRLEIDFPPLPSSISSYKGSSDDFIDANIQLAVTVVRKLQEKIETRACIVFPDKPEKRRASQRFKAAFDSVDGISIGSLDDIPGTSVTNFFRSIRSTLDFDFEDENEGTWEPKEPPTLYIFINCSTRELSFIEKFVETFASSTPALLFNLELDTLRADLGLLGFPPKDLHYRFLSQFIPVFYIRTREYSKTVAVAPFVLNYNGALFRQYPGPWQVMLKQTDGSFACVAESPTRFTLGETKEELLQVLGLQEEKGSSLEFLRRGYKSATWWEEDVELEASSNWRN
UniProt Q9S7H1: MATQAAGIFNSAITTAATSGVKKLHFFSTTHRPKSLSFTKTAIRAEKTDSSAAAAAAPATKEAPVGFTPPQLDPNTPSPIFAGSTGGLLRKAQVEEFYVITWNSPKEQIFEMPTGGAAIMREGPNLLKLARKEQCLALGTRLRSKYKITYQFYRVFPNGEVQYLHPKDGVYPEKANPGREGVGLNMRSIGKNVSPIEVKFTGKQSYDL
UniProt Q38814: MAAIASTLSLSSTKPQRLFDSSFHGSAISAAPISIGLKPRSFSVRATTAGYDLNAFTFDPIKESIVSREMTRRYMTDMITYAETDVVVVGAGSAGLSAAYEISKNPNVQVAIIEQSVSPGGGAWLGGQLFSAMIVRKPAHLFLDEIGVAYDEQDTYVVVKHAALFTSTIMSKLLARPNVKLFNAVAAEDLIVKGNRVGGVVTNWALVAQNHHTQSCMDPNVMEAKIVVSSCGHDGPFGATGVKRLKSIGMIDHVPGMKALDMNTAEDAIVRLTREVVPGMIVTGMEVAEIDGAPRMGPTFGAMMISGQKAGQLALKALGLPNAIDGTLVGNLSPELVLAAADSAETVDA
UniProt Q42029: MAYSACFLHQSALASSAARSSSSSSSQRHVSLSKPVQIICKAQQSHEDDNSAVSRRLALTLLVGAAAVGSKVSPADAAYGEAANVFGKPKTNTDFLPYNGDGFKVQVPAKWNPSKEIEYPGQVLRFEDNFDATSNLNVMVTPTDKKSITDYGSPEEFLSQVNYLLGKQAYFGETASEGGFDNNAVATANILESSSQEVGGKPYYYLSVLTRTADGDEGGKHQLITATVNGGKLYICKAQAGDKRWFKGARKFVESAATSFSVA
UniProt P31167: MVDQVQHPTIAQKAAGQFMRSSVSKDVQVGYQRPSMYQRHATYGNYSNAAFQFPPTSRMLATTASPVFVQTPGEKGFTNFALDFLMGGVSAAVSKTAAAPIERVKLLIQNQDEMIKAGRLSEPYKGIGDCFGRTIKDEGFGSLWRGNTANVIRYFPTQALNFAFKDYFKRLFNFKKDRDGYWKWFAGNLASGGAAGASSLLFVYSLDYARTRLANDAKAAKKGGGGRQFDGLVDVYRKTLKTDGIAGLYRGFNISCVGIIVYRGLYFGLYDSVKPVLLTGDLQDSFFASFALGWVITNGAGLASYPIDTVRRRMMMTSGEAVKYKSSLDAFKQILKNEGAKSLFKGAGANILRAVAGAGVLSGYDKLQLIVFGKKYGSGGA
UniProt Q9SUI4: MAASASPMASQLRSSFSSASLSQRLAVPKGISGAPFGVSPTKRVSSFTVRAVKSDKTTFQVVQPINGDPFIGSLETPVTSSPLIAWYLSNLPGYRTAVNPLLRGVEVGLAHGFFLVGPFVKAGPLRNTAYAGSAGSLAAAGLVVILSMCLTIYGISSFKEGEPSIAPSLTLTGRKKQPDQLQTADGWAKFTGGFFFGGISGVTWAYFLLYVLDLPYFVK
UniProt Q9S7N7: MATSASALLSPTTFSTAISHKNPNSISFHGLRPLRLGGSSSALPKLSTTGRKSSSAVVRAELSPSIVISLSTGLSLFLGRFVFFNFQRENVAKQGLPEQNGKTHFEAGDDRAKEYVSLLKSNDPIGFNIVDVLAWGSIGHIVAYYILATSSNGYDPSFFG
UniProt Q9SY97: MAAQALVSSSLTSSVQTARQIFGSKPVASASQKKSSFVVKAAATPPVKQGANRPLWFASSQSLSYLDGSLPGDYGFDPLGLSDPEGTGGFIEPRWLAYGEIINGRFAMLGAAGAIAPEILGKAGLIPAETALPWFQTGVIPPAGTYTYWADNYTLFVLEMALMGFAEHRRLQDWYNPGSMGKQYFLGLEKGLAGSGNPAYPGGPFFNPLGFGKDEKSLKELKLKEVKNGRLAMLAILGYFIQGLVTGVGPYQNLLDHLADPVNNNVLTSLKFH
UniProt O81283, residues 1-1092: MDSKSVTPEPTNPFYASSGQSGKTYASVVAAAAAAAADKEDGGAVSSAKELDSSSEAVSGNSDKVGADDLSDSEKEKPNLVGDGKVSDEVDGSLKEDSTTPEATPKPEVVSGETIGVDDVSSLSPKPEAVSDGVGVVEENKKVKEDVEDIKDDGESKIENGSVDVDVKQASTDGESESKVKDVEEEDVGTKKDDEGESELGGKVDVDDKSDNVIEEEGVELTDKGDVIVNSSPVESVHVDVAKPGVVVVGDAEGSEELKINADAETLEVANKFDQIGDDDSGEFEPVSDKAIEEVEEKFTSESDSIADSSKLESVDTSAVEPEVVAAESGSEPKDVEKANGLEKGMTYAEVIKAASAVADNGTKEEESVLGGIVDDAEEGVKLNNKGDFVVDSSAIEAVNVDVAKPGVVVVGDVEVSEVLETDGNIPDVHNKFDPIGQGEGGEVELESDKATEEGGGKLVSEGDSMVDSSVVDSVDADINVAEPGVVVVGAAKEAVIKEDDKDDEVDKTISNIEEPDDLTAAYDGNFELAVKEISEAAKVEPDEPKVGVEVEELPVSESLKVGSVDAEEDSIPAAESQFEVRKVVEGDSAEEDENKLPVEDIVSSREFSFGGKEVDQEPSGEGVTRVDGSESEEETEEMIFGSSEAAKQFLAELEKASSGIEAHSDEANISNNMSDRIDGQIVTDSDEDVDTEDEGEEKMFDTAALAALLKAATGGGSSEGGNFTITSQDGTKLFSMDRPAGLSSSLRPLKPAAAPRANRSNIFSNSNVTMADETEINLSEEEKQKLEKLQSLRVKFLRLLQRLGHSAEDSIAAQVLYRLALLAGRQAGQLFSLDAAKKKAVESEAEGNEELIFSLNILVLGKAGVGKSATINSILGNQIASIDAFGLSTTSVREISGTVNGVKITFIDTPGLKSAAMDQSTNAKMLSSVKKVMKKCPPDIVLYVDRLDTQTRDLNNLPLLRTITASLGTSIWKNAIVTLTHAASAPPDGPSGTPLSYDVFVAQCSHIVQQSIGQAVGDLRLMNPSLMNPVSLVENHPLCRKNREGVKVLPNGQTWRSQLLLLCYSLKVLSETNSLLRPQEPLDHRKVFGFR
UniProt Q01667: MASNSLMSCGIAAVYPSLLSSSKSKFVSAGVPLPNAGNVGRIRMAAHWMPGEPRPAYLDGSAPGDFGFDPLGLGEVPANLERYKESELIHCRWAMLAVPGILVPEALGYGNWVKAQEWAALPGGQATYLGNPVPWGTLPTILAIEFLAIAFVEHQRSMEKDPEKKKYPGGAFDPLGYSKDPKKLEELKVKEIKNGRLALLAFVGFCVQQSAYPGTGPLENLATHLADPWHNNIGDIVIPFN
UniProt P47998: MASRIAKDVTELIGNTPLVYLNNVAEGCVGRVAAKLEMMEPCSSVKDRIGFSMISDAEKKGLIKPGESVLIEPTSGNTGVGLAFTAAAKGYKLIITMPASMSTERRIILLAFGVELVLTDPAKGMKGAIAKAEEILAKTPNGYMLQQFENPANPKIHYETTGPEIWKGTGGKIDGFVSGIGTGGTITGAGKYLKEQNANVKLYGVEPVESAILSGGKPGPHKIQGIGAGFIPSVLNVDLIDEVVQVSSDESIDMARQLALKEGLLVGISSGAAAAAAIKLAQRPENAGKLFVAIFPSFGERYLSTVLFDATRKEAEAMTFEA
UniProt Q9SYW8: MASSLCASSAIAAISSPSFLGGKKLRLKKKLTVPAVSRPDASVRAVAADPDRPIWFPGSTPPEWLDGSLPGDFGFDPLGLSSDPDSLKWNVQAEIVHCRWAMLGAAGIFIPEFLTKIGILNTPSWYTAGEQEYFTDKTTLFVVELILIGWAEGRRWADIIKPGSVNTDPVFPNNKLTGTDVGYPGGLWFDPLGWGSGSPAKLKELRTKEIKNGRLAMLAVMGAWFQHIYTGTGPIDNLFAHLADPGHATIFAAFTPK

For test [2] the target is unchanged. Nature of the test: two-hybrid; pairwise split-ubiquitin yeast two-hybrid of isolated NubG-preys with Toc159G, Toc132G or Toc132AG bait in NMY51; growth on SD-LWHA (3-AT) and quantitative β-Gal assay, activity relative to a reference bait set to 100%.
A further test addresses DHFRHis (UniProt P00375). Nature of the test: pull-down; solid phase binding assay: His-tagged TP-DHFR or DHFR immobilised on Ni-NTA resin (up to 800 pmol), incubated with 35S-labelled in vitro translated receptor, 25°C, 30 min, 50 mM Hepes-KOH pH 7.5, 5 mM MgCl2, 40 mM KOAc, 0.1% Triton X-100, 40 mM imidazole, 0.1 mM GTP; phosphorimager; only the target purified.

No constants are given. Whether binding was seen depends on the method and setting. For part of these data: In cells and extracts the contact can be indirect. Some results given as binding are weak or reduced against the parent protein; the word gives no strength.

Regarding “Low PSII accumulation 3 protein (from UniProt Q8H0W0 1-358)”, in test [1], the binding result is “binds”.
Turning to “Photosystem I subunit D-1 (from UniProt Q9S7H1 1-208)”, the binding entry in test [2] was “binds”.
With “THI1 -involved in thiamine synthesis (vitamin B) (from UniProt Q38814 1-349)”, the binding entry in test [2] is “binds”.
On to “Photosystem II Subunit P-1 (from UniProt Q42029 1-263)”, for which, in test [1], the binding result is “binds”.
In the case of “ATP carrier protein 1 (from UniProt P31167 1-381)”, the binding result in test [1] is “binds”.
On to “Photosystem I subunit L (from UniProt Q9SUI4 1-219)”, for which, in test [2], the binding entry is given as “binds”.
For the substance “[35S]atToc132AG (from UniProt Q9SLF3 1-794) (domain or fragment)”, the binding result in the test with DHFRHis is reported as “no binding (tested: 800 pmol)”.
“Photosystem I subunit G (from UniProt Q9S7N7 1-160)”: the binding result in test [1] is “binds”.
Turning to “Photosystem I light harvesting complex gene 3 (from UniProt Q9SY97 1-273)”, the binding result in test [1] is “binds”.
With “[35S]atToc159AG (from UniProt O81283 1-1092) (domain or fragment)”, the binding entry with DHFRHis was “no binding (tested: 800 pmol)”.
On to “Photosystem I light harvesting complex gene 1 (from UniProt Q01667 1-241)”, for which the binding entry in test [1] is “binds”.
On to “Photosystem II light harvesting complex gene 2.1 (from UniProt Q9SHR7 1-265)”, for which the binding result in test [1] is “binds”.
Regarding “Cysteine synthase (from UniProt P47998 1-322)”, the binding result in test [1] is “binds”.
Same read-out and setting: the result for “Photosystem II light harvesting complex protein 2.3 (from UniProt Q9XF87 1-266)” reads “binds”; that for “Photosystem I light harvesting complex gene 2 (from UniProt Q9SYW8 1-257)”, “binds”.

The values are drawn from paper PMC3988174.
